Assay results published in PMC7790756.
Results are given in words; binding and its absence hold for the method and conditions named. Binding seen in cells or lysates may run through a third protein. Some results given as binding are weak or reduced against the parent protein; the word gives no strength.

Amino acid sequences for entries named in this document (tags omitted).
UniProt Q12923: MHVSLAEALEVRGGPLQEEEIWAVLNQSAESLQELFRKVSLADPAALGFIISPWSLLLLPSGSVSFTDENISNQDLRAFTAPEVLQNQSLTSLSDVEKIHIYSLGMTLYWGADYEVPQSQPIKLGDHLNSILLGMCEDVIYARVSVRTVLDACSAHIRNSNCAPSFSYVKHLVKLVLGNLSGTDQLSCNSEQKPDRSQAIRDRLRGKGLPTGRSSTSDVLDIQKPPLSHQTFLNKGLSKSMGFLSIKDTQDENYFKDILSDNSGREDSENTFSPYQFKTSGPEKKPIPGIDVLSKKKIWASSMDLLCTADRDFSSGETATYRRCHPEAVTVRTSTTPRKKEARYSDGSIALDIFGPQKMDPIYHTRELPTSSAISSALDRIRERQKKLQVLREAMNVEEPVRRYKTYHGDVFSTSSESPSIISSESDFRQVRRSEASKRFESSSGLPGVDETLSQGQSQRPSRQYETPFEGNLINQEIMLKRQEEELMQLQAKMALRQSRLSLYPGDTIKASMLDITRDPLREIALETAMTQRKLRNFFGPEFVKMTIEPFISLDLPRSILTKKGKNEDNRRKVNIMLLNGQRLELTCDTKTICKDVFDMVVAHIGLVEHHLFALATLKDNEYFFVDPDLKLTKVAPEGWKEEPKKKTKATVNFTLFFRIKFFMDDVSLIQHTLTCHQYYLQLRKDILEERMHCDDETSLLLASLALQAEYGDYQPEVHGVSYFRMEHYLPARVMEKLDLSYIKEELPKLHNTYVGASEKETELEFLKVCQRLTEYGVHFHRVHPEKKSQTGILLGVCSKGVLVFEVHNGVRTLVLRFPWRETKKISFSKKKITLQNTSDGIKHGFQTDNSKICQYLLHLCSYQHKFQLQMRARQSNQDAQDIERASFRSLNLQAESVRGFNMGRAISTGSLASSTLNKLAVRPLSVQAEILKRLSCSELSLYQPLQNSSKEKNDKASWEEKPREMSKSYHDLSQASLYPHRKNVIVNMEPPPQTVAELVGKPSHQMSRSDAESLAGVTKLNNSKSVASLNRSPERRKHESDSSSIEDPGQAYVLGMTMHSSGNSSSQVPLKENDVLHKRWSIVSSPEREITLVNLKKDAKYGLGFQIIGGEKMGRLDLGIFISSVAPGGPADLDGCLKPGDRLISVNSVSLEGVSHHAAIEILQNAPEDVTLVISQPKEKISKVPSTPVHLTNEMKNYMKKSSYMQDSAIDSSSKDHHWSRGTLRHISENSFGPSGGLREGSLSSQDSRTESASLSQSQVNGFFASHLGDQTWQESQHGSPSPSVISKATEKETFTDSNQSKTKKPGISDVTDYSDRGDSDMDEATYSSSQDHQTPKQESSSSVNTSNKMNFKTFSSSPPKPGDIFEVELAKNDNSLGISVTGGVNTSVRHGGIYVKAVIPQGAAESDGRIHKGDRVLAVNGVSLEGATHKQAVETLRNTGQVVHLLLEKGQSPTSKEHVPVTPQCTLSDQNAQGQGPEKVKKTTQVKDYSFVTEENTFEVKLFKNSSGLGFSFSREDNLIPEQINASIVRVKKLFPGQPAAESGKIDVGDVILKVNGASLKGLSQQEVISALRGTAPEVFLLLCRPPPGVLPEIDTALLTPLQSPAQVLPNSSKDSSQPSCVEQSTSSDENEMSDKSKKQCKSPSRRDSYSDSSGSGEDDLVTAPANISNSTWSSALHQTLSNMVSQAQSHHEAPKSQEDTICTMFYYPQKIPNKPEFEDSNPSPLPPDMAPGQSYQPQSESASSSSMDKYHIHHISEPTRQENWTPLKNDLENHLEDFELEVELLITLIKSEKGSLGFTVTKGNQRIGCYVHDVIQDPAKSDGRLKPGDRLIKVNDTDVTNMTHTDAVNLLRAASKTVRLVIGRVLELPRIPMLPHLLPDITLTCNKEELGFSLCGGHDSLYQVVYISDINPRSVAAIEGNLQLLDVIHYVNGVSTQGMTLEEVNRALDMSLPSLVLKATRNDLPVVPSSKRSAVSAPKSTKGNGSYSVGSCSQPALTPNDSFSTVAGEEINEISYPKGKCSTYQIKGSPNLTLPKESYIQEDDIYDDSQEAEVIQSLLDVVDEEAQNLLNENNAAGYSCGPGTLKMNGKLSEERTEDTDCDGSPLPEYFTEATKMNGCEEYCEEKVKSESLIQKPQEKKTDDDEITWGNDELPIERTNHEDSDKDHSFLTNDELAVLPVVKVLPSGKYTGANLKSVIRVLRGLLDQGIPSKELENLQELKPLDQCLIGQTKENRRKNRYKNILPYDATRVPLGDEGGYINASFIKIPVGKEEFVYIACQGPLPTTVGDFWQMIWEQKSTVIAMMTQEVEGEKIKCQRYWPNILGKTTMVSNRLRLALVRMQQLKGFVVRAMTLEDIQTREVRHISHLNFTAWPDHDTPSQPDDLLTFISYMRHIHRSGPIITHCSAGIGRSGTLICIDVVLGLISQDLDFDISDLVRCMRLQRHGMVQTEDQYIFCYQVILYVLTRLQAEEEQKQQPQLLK
UniProt O00425: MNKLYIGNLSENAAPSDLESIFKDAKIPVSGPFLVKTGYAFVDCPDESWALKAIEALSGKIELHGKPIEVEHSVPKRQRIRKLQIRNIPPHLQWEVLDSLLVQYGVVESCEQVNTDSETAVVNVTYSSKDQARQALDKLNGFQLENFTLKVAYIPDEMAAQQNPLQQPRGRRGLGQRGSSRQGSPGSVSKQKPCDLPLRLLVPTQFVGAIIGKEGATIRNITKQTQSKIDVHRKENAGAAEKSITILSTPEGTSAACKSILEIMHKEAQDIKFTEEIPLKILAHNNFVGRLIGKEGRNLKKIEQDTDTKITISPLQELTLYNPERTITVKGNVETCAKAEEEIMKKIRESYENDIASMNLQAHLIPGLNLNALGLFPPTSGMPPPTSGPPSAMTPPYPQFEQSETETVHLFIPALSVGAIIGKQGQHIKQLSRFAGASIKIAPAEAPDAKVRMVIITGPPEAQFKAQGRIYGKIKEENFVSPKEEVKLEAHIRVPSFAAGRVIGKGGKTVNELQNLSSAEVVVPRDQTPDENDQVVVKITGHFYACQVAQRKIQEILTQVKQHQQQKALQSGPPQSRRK
UniProt P14618: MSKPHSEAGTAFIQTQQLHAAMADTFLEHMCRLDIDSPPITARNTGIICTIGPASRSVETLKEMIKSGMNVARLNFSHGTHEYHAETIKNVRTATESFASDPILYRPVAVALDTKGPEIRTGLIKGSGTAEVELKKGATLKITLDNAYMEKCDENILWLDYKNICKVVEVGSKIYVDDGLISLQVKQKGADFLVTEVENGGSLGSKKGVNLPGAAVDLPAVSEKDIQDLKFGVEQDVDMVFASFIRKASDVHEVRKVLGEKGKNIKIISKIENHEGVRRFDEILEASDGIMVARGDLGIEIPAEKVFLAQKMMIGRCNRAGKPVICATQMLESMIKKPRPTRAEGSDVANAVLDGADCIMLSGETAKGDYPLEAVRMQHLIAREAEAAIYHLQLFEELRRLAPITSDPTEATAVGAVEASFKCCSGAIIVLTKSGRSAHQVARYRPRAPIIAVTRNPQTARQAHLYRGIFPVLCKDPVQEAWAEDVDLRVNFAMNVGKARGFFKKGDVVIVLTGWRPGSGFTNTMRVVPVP

Target: Tyrosine-protein phosphatase nonreceptor type 13 (PTPN13), endogenous (human (endogenous in human HCC cell lines)) (UniProt Q12923)
Experiment: co-IP; CoIP of endogenous proteins; data not shown

Substance	binding
IGF2BP3, endogenous (from UniProt O00425 1-579)	binds
PKM, endogenous (from UniProt P14618 1-531) (enzyme)	binds
